Here are results for five sequences from patent publication US20240131171.

Chains of the proteins cited; added tags and fusions are not shown. Chains listed by the source or under a name are the forms on record and can include a tag or linker.
coagulation factor IXa (FIXa) (Homo sapiens), one chain, as listed by the source, chain 1 of 2: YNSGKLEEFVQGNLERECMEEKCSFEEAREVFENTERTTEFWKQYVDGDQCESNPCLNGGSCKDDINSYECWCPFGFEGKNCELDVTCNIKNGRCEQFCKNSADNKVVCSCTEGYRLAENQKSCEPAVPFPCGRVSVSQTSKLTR
coagulation factor IXa (FIXa) (Homo sapiens), one chain, as listed by the source, chain 2 of 2: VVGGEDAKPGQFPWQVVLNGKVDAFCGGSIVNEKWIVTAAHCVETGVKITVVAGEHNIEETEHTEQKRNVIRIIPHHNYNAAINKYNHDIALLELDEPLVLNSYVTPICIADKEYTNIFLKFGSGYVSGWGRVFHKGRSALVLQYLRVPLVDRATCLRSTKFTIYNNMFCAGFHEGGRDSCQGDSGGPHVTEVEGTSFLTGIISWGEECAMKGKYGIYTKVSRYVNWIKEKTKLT

For this data set, the system named is coagulation factor IXa (FIXa) (Homo sapiens). Briefly: inhibition of the protein. The settings on record: protein in an extract.

No signal at the amounts used counts as a negative. The comparison behind a weaker result is the experiment's own reference, which may not be listed here. The exact form of at least one protein or probe is not confirmed.

With “GUGGACUAUACCGCGUAAUGCUGCCUCCAC / CGCGGUAUAGUCCAC [RB006 + RB007 antidote]”, the “functional effect of the aptamer” value (aptamer strand as RB006, RB007 strand all 2'-OMe, modified aPTT, conjugate 392 nM, varying molar excess RB007, dose-dependent reversal of anticoagulant …) is “less active”.
On to “GUGGACUAUACCGCGUAAUGCUGCCUCCAC [POEGMA-RB005]”, for which the “functional effect of the aptamer” value (2'-F C/U at 6,7,9,11,12,14,16,19,21,25,26, 2'-OH G at 23, 2'-OMe at all other positions, 3' idT, 5' hexylamino linker-DBCO-POEGMA (EG3 side chains, about 40 kDa) (SEQ ID NO: 1), aPTT assay in pooled human plasma, 37 C, CaCl2, baseline about 30 s, comparable to RB006 (p=0.92), dose not given here) is reported as “active”.
In the case of “GUGGACUAUACCGCGUAAUGCUGCCUCCAC / CGCGGUAUAGUCCAC [POEGMA-RB005 + RB007 antidote]”, for the setting “aptamer strand as POEGMA-RB005, RB007 strand all 2'-OMe, modified aPTT, conjugate 392 nM, varying molar excess RB007, dose-dependent reversal of anticoagulant activity, variant of POEGMA-RB005”, the “functional effect of the aptamer” value is reported as “less active”.
Regarding “CGCGGUAUAGUCCAC [RB007 antidote oligonucleotide]”, the “functional effect of the aptamer” value (all 2'-OMe (SEQ ID NO: 2), modified aPTT, RB007 alone did not affect clotting, dose not given here) is “not active”.
Take “GUGGACUAUACCGCGUAAUGCUGCCUCCAC [RB006 (PEG-RB005, pegnivacogin biosimilar)]”: for the setting “2'-F C/U at 6,7,9,11,12,14,16,19,21,25,26, 2'-OH G at 23, 2'-OMe at all other positions, 3' idT, 5' hexylamino linker-40 kDa 2-arm branched PEG (SEQ ID NO: 1), aPTT assay in pooled human plasma, 37 C, CaCl2, baseline about 30 s, dose not given here”, the “functional effect of the aptamer” value is “active”.
